# The other results are listed elsewhere or left out.
# B1: FimA-N2 (Actinomyces oris) (protein)
# chain: MHHHHHHSSGVDLGTENLYFQSNAWIYDVNVYPKNEAIDVDKTIQAQKLNGYGVGSLIKFPVESTAPTLDAKSFYKYFQLKDTLDERLSEVTATDVSLEGTPLQPTDYKVETKQQTVTVTFTAEGLKKIKAAPGKKVSAVFQGKVTKAGNGAITNRAQVISDTLYAEQPPTPETPPTDPENPPTSDEVISRWGDLSIKKVDTHQQGQTKA
# Legend:
# Experiment in all cases: glycan array binding signal (z-score within array); higher = stronger binding
# Conditions in all cases: glycan notation: IUPAC condensed, linker removed
# Gal(b1-4)Glc = target: Gal(b1-4)Glc
# How it was run: (§1)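 Glycan array binding is given as a within-array Z-score, which can be read as non-binding when negative. The arrays, 3228 of them, came from the Consortium for Functional Glycomics database and were retained only where the protein sequence was available. Z-scores were averaged across arrays of the same protein sequence at different concentrations or buffers and across linkers.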
# Gal(b1-4)Glc6S = target: Gal(b1-4)Glc6S
# How it was run: as §1
# Gal(b1-4)GlcNAc = target: Gal(b1-4)GlcNAc
# How it was run: as §1
# [1] = target: Gal(b1-4)GlcNAc(a1-6)Gal(b1-4)GlcNAc
# How it was run: as §1
# Gal(b1-4)GlcNAc(b1-2)Man = target: Gal(b1-4)GlcNAc(b1-2)Man
# How it was run: as §1
# [2] = target: Gal(b1-4)GlcNAc(b1-2)Man(a1-3)Man(b1-4)GlcNAc(b1-4)GlcNAc
# How it was run: as §1
# [3] = target: Gal(b1-4)GlcNAc(b1-2)Man(a1-3)[Gal(b1-4)GlcNAc(b1-2)Man(a1-6)]Man(b1-4)GlcNAc(b1-4)GlcNAc
# How it was run: as §1
# [4] = target: Gal(b1-4)GlcNAc(b1-2)Man(a1-3)[Gal(b1-4)GlcNAc(b1-2)Man(a1-6)]Man(b1-4)GlcNAc(b1-4)[Fuc(a1-6)]GlcNAc
# How it was run: as §1
# [5] = target: Gal(b1-4)GlcNAc(b1-2)Man(a1-3)[Gal(b1-4)GlcNAc(b1-2)Man(a1-6)][Gal(b1-4)GlcNAc(b1-4)]Man(b1-4)GlcNAc(b1-4)[Fuc(a1-6)]GlcNAc
# How it was run: as §1
# [6] = target: Gal(b1-4)GlcNAc(b1-2)Man(a1-3)[Gal(b1-4)GlcNAc(b1-2)Man(a1-6)][GlcNAc(b1-4)]Man(b1-4)GlcNAc(b1-4)[Fuc(a1-6)]GlcNAc
# How it was run: as §1
# [7] = target: Gal(b1-4)GlcNAc(b1-2)Man(a1-3)[GlcNAc(b1-2)Man(a1-6)]Man(b1-4)GlcNAc(b1-4)GlcNAc
# How it was run: as §1
# [8] = target: Gal(b1-4)GlcNAc(b1-2)Man(a1-3)[GlcNAc(b1-4)][Gal(b1-4)GlcNAc(b1-2)Man(a1-6)]Man(b1-4)GlcNAc(b1-4)GlcNAc
# How it was run: as §1
# [9] = target: Gal(b1-4)GlcNAc(b1-2)Man(a1-3)[Man(a1-6)]Man(b1-4)GlcNAc(b1-4)GlcNAc
# How it was run: as §1
# [10] = target: Gal(b1-4)GlcNAc(b1-2)Man(a1-6)Man(b1-4)GlcNAc(b1-4)GlcNAc
# How it was run: as §1
# [11] = target: Gal(b1-4)GlcNAc(b1-2)Man(a1-6)[GlcNAc(b1-2)Man(a1-3)]Man(b1-4)GlcNAc(b1-4)GlcNAc
# How it was run: as §1
# [12] = target: Gal(b1-4)GlcNAc(b1-2)Man(a1-6)[Man(a1-3)]Man(b1-4)GlcNAc(b1-4)GlcNAc
# How it was run: as §1
# [13] = target: Gal(b1-4)GlcNAc(b1-2)[Gal(b1-4)GlcNAc(b1-4)]Man(a1-3)[Gal(b1-4)GlcNAc(b1-2)Man(a1-6)]Man(b1-4)GlcNAc(b1-4)GlcNAc
# How it was run: as §1
# [14] = target: Gal(b1-4)GlcNAc(b1-2)[Gal(b1-4)GlcNAc(b1-4)]Man(a1-3)[Gal(b1-4)GlcNAc(b1-2)[Gal(b1-4)GlcNAc(b1-6)]Man(a1-6)]Man(b1-4)GlcNAc(b1-4)GlcNAc
# How it was run: as §1
# [15] = target: Gal(b1-4)GlcNAc(b1-2)[Gal(b1-4)GlcNAc(b1-4)]Man(a1-3)[GlcNAc(b1-4)][Gal(b1-4)GlcNAc(b1-2)Man(a1-6)]Man(b1-4)GlcNAc(b1-4)GlcNAc
# How it was run: as §1
# [16] = target: Gal(b1-4)GlcNAc(b1-2)[Gal(b1-4)GlcNAc(b1-4)]Man(a1-3)[GlcNAc(b1-4)][Gal(b1-4)GlcNAc(b1-2)[Gal(b1-4)GlcNAc(b1-6)]Man(a1-6)]Man(b1-4)GlcNAc(b1-4)GlcNAc
# How it was run: as §1
# [17] = target: Gal(b1-4)GlcNAc(b1-2)[Gal(b1-4)GlcNAc(b1-6)]Man(a1-6)[Gal(b1-4)GlcNAc(b1-2)Man(a1-3)]Man(b1-4)GlcNAc(b1-4)GlcNAc
# How it was run: as §1
# [18] = target: Gal(b1-4)GlcNAc(b1-2)[Gal(b1-4)GlcNAc(b1-6)]Man(a1-6)[Gal(b1-4)GlcNAc(b1-2)Man(a1-3)]Man(b1-4)GlcNAc(b1-4)[Fuc(a1-6)]GlcNAc
# How it was run: as §1
binder,measurement,setting,value
B1,glycan array binding signal (z-score),Gal(b1-4)Glc,0.433
same,glycan array binding signal (z-score),Gal(b1-4)Glc6S,-0.103
same,glycan array binding signal (z-score),Gal(b1-4)GlcNAc,-0.39
same,glycan array binding signal (z-score),[1],-0.568
same,glycan array binding signal (z-score),Gal(b1-4)GlcNAc(b1-2)Man,-0.413
same,glycan array binding signal (z-score),[2],-0.669
same,glycan array binding signal (z-score),[3],1.4
same,glycan array binding signal (z-score),[4],-1.08
same,glycan array binding signal (z-score),[5],1.48
same,glycan array binding signal (z-score),[6],-0.929
same,glycan array binding signal (z-score),[7],-0.393
same,glycan array binding signal (z-score),[8],-0.36
same,glycan array binding signal (z-score),[9],0.37
same,glycan array binding signal (z-score),[10],1.29
same,glycan array binding signal (z-score),[11],-1.43
same,glycan array binding signal (z-score),[12],0.936
same,glycan array binding signal (z-score),[13],-0.799
same,glycan array binding signal (z-score),[14],0.348
same,glycan array binding signal (z-score),[15],-0.67
same,glycan array binding signal (z-score),[16],-0.356
same,glycan array binding signal (z-score),[17],0.365
same,glycan array binding signal (z-score),[18],-0.477

# Some of the entries so far, with tabs.
binder	measurement	setting	value
B1	glycan array binding signal (z-score)	[8]	-0.36
same	glycan array binding signal (z-score)	[9]	0.37

# — the supplement of paper PMC8728848
